The assay concerns the target GFP-fused porcine SUMO2 (porcine) (UniProt P61958). The assay is described as follows: co-IP; Flag-tagged pNPM1 and GFP-fused SUMO1, SUMO2 or SUMO3 transfected into PK-15^npm1-/- cells, then mock or 1 MOI PCV2 for 12 h.

Sequences of proteins named here, by UniProt entry; tags and fusion partners are left off. A change or cut given only in a name is not applied to a line headed by its entry.
UniProt P61958: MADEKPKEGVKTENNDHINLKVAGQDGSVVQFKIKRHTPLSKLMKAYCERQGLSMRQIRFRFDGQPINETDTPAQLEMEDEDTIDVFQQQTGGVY
UniProt I3LUP6: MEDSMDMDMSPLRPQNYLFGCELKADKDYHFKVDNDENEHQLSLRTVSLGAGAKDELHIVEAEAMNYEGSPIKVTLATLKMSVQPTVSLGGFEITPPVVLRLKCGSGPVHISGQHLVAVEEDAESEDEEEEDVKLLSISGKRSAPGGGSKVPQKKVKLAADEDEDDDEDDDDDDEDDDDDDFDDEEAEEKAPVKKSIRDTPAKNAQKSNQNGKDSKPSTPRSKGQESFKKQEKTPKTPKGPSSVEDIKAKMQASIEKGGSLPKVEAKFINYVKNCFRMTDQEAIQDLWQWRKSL

No constants are given. Whether binding was seen depends on the method and setting. In cells and extracts the contact can be indirect. Binding can be weak; no strength is given.

In the case of “Flag-tagged wild-type porcine nucleophosmin-1 (pNPM1) (from UniProt I3LUP6)”, the binding entry is given as “binds”.

(Values after paper PMC10917307.)
